# According to doi:10.1101/2025.09.09.675128:
# The chains behind the UniProt entries cited, without tags or fusion partners. Where a name states a change or a piece, a line headed by the entry shows the natural chain unless it says otherwise.
# UniProt P09391: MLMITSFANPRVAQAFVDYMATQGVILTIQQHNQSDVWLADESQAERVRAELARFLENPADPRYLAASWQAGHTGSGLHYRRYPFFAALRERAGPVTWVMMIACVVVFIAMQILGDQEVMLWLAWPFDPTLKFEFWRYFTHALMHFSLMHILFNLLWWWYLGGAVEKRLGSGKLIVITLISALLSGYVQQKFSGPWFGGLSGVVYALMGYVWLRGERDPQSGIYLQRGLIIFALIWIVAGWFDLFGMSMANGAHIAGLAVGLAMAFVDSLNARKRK
# UniProt P10408: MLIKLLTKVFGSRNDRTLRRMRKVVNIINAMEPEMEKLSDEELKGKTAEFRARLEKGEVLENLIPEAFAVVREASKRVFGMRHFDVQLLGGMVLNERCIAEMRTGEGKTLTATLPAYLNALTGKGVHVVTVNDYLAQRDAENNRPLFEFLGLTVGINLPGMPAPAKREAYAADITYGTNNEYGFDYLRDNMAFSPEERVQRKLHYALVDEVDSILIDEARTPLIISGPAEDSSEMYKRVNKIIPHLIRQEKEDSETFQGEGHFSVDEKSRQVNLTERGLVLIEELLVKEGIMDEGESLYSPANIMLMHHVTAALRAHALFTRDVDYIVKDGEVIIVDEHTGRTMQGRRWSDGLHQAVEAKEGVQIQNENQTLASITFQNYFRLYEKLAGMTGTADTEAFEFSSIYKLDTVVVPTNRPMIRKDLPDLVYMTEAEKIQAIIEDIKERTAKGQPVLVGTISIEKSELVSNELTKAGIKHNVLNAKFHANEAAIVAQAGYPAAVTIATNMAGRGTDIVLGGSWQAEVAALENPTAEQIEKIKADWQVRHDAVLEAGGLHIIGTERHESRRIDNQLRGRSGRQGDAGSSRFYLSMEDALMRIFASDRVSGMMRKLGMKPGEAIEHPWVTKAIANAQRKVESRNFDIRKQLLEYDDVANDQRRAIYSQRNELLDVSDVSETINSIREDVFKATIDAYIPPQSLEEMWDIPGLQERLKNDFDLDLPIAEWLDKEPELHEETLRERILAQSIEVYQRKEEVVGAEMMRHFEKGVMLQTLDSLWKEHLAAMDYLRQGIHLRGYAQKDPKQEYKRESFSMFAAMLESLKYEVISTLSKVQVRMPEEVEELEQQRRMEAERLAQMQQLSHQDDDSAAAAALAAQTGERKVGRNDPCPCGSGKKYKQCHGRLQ
# UniProt P0AGA2: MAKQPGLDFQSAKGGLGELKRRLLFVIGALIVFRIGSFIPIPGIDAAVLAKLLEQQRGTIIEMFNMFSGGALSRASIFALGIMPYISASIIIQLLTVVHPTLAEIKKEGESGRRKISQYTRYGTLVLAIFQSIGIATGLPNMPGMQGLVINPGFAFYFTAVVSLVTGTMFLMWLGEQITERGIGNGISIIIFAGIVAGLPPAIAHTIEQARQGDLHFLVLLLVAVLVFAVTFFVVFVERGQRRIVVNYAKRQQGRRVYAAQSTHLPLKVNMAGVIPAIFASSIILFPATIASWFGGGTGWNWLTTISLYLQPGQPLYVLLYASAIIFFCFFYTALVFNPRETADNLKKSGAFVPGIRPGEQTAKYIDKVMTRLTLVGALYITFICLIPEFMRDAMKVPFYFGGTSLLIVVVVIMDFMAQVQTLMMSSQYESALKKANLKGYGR
# UniProt P0AG99: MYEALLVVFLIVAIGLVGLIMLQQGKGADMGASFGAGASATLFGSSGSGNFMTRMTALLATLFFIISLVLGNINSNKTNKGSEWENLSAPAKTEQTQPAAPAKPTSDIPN
# No constants are given. Whether binding was seen depends on the method and setting. In cells and extracts the contact can be indirect. These calls come from enrichment with a bait or labelling near it, and not all partners need be listed.
# Target: E. coli rhomboid protease GlpG, genomically tagged with 3X FLAG (E. coli) (UniProt P09391)
# Assay: affinity purification with mass spectrometry
row,Molecule,binding
1,ATP-dependent motor protein SecA (from UniProt P10408 1-901),binds
2,SecY of the SecYEG translocon (from UniProt P0AGA2 1-443),binds
3,SecG of the SecYEG translocon (from UniProt P0AG99 1-110),binds
4,"YidC (protein, UniProt P25714 1-548) MDSQRNLLVIALLFVSFMIWQAWEQDKNPQPQAQQTTQTTTTAAGSAADQGVPASGQGKLISVKTDVLDLTINTRGGDVEQALLPAYPKELNSTQPFQLLETSPQFIYQAQSGLTGRDGPDNPANGPRPLYNVEKDAYVLAEGQNELQVPMTYTDAAGNTFTKTFVLKRGDYAVNVNYNVQNAGEKPLEISSFGQLKQSITLPPHLDTGSSNFALHTFRGAAYSTPDEKYEKYKFDTIADNENLNISSKGGWVAMLQQYFATAWIPHNDGTNNFYTANLGNGIAAIGYKSQPVLVQPGQTGAMNSTLWVGPEIQDKMAAVAPHLDLTVDYGWLWFISQPLFKLLKWIHSFVGNWGFSIIIITFIVRGIMYPLTKAQYTSMAKMRMLQPKIQAMRERLGDDKQRISQEMMALYKAEKVNPLGGCFPLLIQMPIFLALYYMLMGSVELRQAPFALWIHDLSAQDPYYILPILMGVTMFFIQKMSPTTVTDPMQQKIMTFMPVIFTVFFLWFPSGLVLYYIVSNLVTIIQQQLIYRGLEKRGLHSREKKKS",binds
5,"SecD (protein, UniProt P0AG90 1-615) MLNRYPLWKYVMLIVVIVIGLLYALPNLFGEDPAVQITGARGVAASEQTLIQVQKTLQEEKITAKSVALEEGAILARFDSTDTQLRAREALMGVMGDKYVVALNLAPATPRWLAAIHAEPMKLGLDLRGGVHFLMEVDMDTALGKLQEQNIDSLRSDLREKGIPYTTVRKENNYGLSITFRDAKARDEAIAYLSKRHPDLVISSQGSNQLRAVMSDARLSEAREYAVQQNINILRNRVNQLGVAEPVVQRQGADRIVVELPGIQDTARAKEILGATATLEFRLVNTNVDQAAAASGRVPGDSEVKQTREGQPVVLYKRVILTGDHITDSTSSQDEYNQPQVNISLDSAGGNIMSNFTKDNIGKPMATLFVEYKDSGKKDANGRAVLVKQEEVINIANIQSRLGNSFRITGINNPNEARQLSLLLRAGALIAPIQIVEERTIGPTLGMQNIEQGLEACLAGLLVSILFMIIFYKKFGLIATSALIANLILIVGIMSLLPGATLSMPGIAGIVLTLAVAVDANVLINERIKEELSNGRTVQQAIDEGYRGAFSSIFDANITTLIKVIILYAVGTGAIKGFAITTGIGVATSMFTAIVGTRAIVNLLYGGKRVKKLSI",binds
6,"SecF (protein, UniProt P0AG93 1-323) MAQEYTVEQLNHGRKVYDFMRWDYWAFGISGLLLIAAIVIMGVRGFNWGLDFTGGTVIEITLEKPAEIDVMRDALQKAGFEEPMLQNFGSSHDIMVRMPPAEGETGGQVLGSQVLKVINESTNQNAAVKRIEFVGPSVGADLAQTGAMALMAALLSILVYVGFRFEWRLAAGVVIALAHDVIITLGILSLFHIEIDLTIVASLMSVIGYSLNDSIVVSDRIRENFRKIRRGTPYEIFNVSLTQTLHRTLITSGTTLMVILMLYLFGGPVLEGFSLTMLIGVSIGTASSIYVASALALKLGMKREHMLQQKVEKEGADQPSILP",binds
7,"periplasmic serine endoprotease DegQ (enzyme, UniProt P39099 28-455) SIPGQVADQAPLPSLAPMLEKVLPAVVSVRVEGTASQGQKIPEEFKKFFGDDLPDQPAQPFEGLGSGVIINASKGYVLTNNHVINQAQKISIQLNDGREFDAKLIGSDDQSDIALLQIQNPSKLTQIAIADSDKLRVGDFAVAVGNPFGLGQTATSGIVSALGRSGLNLEGLENFIQTDASINRGNSGGALLNLNGELIGINTAILAPGGGSVGIGFAIPSNMARTLAQQLIDFGEIKRGLLGIKGTEMSADIAKAFNLDVQRGAFVSEVLPGSGSAKAGVKAGDIITSLNGKPLNSFAELRSRIATTEPGTKVKLGLLRNGKPLEVEVTLDTSTSSSASAEMITPALEGATLSDGQLKDGGKGIKIDEVVKGSPAAQAGLQKDDVIIGVNRDRVNSIAEMRKVLAAKPAIIALQIVRGNESIYLLMR",binds
8,"periplasmic serine endoprotease DegP (enzyme, UniProt P0C0V0 27-474) AETSSATTAQQMPSLAPMLEKVMPSVVSINVEGSTTVNTPRMPRNFQQFFGDDSPFCQEGSPFQSSPFCQGGQGGNGGGQQQKFMALGSGVIIDADKGYVVTNNHVVDNATVIKVQLSDGRKFDAKMVGKDPRSDIALIQIQNPKNLTAIKMADSDALRVGDYTVAIGNPFGLGETVTSGIVSALGRSGLNAENYENFIQTDAAINRGNSGGALVNLNGELIGINTAILAPDGGNIGIGFAIPSNMVKNLTSQMVEYGQVKRGELGIMGTELNSELAKAMKVDAQRGAFVSQVLPNSSAAKAGIKAGDVITSLNGKPISSFAALRAQVGTMPVGSKLTLGLLRDGKQVNVNLELQQSSQNQVDSSSIFNGIEGAEMSNKGKDQGVVVNNVKTGTPAAQIGLKKGDVIIGANQQAVKNIAELRKVLDSKPSVLALNIQRGDSTIYLLMQ",binds
